# Source: the supplement of paper PMC3334620
# Over roughly 33,000 sequences, “E-score (-0.5 to 0.5)” has its median near -0.0059; the highest 2% begin near 0.26. The list shows a part of the results.
# Target: T1, Cin5 (UniProt P40917)
# T1 sequence: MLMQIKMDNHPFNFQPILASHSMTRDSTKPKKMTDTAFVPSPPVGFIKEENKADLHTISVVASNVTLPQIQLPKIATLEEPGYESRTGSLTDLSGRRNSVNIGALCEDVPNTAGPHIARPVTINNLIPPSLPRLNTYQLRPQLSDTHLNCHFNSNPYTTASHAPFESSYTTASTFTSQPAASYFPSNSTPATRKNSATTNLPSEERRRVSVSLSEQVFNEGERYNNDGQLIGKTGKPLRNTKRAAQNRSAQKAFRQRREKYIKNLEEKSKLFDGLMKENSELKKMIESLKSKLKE
# Experiment: PBM E-score (8-mer binding enrichment) (E-score (-0.5 to 0.5)); higher = stronger / more preferred TF binding
# Conditions: protein concentration: 100 nM; construct: GST-full length
# How it was run: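 Universal all-10-mer Agilent arrays, fresh or stripped once, were converted to double-stranded form by primer extension. GST-tagged yeast transcription factors from PURExpress in vitro transcription/translation, full-length or DNA-binding domain only, were applied at about 100-200 nM and detected with fluorescent anti-GST. After masliner normalisation, the Universal PBM Analysis Suite scored each ungapped eight-base word together with its reverse complement by E-score.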
row,Sequence,PBM E-score
1,ATAATTTA,0.332
2,CGCTTGTA,0.139
3,GAGTCACC,-0.246
4,GCCGGCAA,0.0652
5,ACCTAGGA,0.063
6,AAAGGGAG,-0.319
7,CTATTGTA,0.13
8,ACACTGGG,-0.0337
9,ATATCTTA,0.242
10,ACGCCAGG,-0.179
11,AACTTACT,-0.00245
12,GGAATGCC,0.0471
13,TCATCTCA,0.242
14,CCGATGTC,-0.0198
15,CAGCTAAC,-0.207
16,GCACCACA,-0.122
17,TAACGAGA,0.167
18,AGCACCAG,0.0145
19,CCGCCTCC,-0.27
20,AATAGGTA,0.207
21,CGACCTTA,0.061
22,AAGTTCTA,-0.0378
23,AAAACCAT,0.151
24,AGATGTGC,0.129
25,CGGTGGCA,-0.229

row,Sequence,PBM E-score
1,TTATTGAA,0.198
2,GCCGCTAA,-0.0216
3,ATTCATGG,0.0318
4,AGCTGTAC,-0.0637
5,CAATTCTA,0.0599
6,ACCTGCAA,-0.11
7,CGCCAAGA,-0.144
8,ATACATGA,0.0965
9,CCCATGGA,0.00052
10,CATTGAAA,0.0619
11,ATGATCAC,0.198
12,GGTCATTA,0.0493
13,AACATATT,0.251
14,ACCCGCAG,0.0669
15,AAACCTAC,0.198
16,ACGCCGCT,0.111
17,CACCGTGA,-0.169
18,CATAGTCC,-0.0546
19,GATCTGCA,-0.0344
20,TAATTTAA,0.184
21,AGAACCAT,0.0227
22,ACGCAAGC,0.121
23,TCTTCTAA,0.0284
24,AGCAGTTA,0.0901
25,AATACCTC,0.0347

# Part of the list above, bar-delimited:
row | Sequence | PBM E-score
12 | GGTCATTA | 0.0493
13 | AACATATT | 0.251

# The listing continues.

row,Sequence,PBM E-score
1,CTTCTCTA,-0.153
2,AAGCCGCC,-0.129
3,ACTAAGGG,-0.174
4,AGAGTACC,-0.043
5,CCACTGCC,-0.0765
6,CTCAAGAA,-0.091
7,GGATGAAA,0.112
8,CATGGAAC,-0.133
9,CTTCTAGC,-0.24
10,GCATTAAA,0.0586
11,ATAACGCG,0.13
12,AACGCAAA,0.0702
13,CGGCGTAC,-0.174
14,ACTACTCG,0.209
15,GATAGCGC,0.00176
16,AGATGGCC,-0.16
17,CCGAAGGC,-0.304
18,ACAAAAAT,0.247
19,AACACCAT,0.0774
20,ATCTTAGC,-0.0416
21,AGAAGTGA,-0.0317
22,TCGACAGA,0.0217
23,CGCGACCC,-0.102
24,CAATTCTG,0.0455
25,TGCTAAAA,-0.0719

row,Sequence,PBM E-score
1,GCTGAATA,0.223
2,AATGGTCA,0.176
3,AAAAAAGC,-0.04
4,CCGATGGC,-0.0788
5,CACTATCC,0.00958
6,GATCGGCA,-0.0799
7,GATTGCTA,-0.0568
8,AGCCCTTG,-0.196
9,TAGATCGA,0.0888
10,GGGAGAAC,-0.184
11,TCAGTTCA,0.055
12,ATTGTTTG,0.168
13,AACCCTGT,-0.0871
14,GTGTGAAC,-0.0377
15,TGGGCACA,-0.0569
16,ATGGGCAA,0.0649
17,AAGGTAAC,0.189
18,ACTTGCAA,0.0582
19,AGGATACT,-0.135
20,ACGCATTA,0.0564
21,AGAATAGA,0.0383
22,ACCAGCAT,0.0225
23,ATTTAGGG,0.0134
24,ACATCAGG,0.0572
25,CCGTCACC,-0.234

row,Sequence,PBM E-score
1,AGAGGGCT,-0.241
2,ATGCCATA,0.16
3,AACGTTCT,0.0939
4,ACGGAAGT,0.179
5,CGGATGTC,0.0822
6,ACCAAGGT,-0.0848
7,TCTGTAAA,-0.0149
8,ACCATCCT,-0.0592
9,AAATATCG,0.164
10,CGCTGGGA,-0.244
11,AGTGTTGG,0.147
12,CGAGTACG,-0.119
13,CAACTACG,0.032
14,CGTTGTTA,0.091
15,GAGGCGCC,-0.119
16,TAGGAAGA,-0.197
17,CACCCCAC,0.171
18,CGCACGCA,-0.0549
19,GTATTTCA,0.0836
20,CAGGGACA,-0.0907
21,AGCTCGGA,-0.0324
22,ACGGATTC,0.0755
23,TATGCGGA,0.148
24,AAGTCTCT,-0.249
25,AGACGGGC,-0.155

# As entered above:
# PBM E-score, TCGACAGA reads 0.0217
# PBM E-score, GCCGGCAA reads 0.0652

# Remaining list, next part

row,Sequence,PBM E-score
1,ATCTACAG,0.132
2,CAATGTGA,0.117
3,GAGCTCAC,-0.0667
4,GCTGGCCA,-0.135
5,CCTACTTA,0.0194
6,ACAGACAA,0.28
7,CAGACACA,-0.0486
8,AGTTGCTA,0.174
9,CACGGGCG,-0.108
10,CTAGGGTC,-0.224
11,AGGCACAG,-0.196
12,ATCGGTAA,0.107
13,AGCCTTGA,-0.0832
14,CGAATAAA,0.0982
15,CGAGGCAA,0.0711
16,TCACTCGA,-0.04
17,AACAGCGT,0.0292
18,CGTGACGC,-0.0607
19,CAAACCCC,-0.059
20,AATCAGCT,0.0682
21,ACAAAGAA,0.115
22,GAATAAGC,0.121
23,GATAATGC,0.0879
24,GATCGGAA,0.0632
25,ATTAACTG,0.237

row,Sequence,PBM E-score
1,GTCTCCTA,-0.225
2,TGCTAGAA,-0.089
3,CTGAGGCC,-0.0445
4,AAGCCGTA,0.0259
5,GTGGGTCA,-0.0526
6,AAGGCAGT,0.0209
7,AAGGCATA,-0.0243
8,ACGCATGG,-0.2
9,GATATCGC,0.126
10,ACGTACGG,0.05
11,GAATAGAA,0.173
12,AGACCGAA,0.0258
13,CTGCTAAG,-0.298
14,GCACACGA,-0.221
15,CGAGGGCA,-0.0897
16,ATCGCTAA,0.0407
17,ACACAACG,0.0427
18,AACTCGCC,0.141
19,ACTAGACC,0.16
20,ATCGGTGC,-0.0174
21,AATCATTC,0.188
22,ACTTACCG,0.19
